Source: patent US20160331662A1, “Compositions that Inhibit and Prevent the Formation of Dental Caries and Methods of Using the Same” (priority 2014, published 2016)
Results are given in words; binding and its absence hold for the method and conditions named. Some binding calls cover weakened binding; strength is not graded here.

Protein sequences, listed by entry. Tags and fused reporters are not part of them. Residues count along the entry.
iSRCR123 (Q9UGM3, residues 102-463): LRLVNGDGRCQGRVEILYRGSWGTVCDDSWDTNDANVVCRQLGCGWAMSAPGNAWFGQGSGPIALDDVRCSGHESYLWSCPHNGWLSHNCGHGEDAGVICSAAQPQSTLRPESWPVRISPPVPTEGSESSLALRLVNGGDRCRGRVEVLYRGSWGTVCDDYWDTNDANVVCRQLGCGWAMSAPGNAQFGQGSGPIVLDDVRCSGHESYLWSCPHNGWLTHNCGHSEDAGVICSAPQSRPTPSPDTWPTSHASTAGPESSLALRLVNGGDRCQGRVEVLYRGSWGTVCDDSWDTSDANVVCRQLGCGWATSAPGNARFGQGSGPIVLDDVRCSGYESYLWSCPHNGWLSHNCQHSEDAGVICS
iSRCR1 (Q9UGM3, residues 102-202): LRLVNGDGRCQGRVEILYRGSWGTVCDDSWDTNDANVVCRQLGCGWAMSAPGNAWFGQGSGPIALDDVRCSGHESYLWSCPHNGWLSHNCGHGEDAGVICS
UniProt P16952, residues 39-1433: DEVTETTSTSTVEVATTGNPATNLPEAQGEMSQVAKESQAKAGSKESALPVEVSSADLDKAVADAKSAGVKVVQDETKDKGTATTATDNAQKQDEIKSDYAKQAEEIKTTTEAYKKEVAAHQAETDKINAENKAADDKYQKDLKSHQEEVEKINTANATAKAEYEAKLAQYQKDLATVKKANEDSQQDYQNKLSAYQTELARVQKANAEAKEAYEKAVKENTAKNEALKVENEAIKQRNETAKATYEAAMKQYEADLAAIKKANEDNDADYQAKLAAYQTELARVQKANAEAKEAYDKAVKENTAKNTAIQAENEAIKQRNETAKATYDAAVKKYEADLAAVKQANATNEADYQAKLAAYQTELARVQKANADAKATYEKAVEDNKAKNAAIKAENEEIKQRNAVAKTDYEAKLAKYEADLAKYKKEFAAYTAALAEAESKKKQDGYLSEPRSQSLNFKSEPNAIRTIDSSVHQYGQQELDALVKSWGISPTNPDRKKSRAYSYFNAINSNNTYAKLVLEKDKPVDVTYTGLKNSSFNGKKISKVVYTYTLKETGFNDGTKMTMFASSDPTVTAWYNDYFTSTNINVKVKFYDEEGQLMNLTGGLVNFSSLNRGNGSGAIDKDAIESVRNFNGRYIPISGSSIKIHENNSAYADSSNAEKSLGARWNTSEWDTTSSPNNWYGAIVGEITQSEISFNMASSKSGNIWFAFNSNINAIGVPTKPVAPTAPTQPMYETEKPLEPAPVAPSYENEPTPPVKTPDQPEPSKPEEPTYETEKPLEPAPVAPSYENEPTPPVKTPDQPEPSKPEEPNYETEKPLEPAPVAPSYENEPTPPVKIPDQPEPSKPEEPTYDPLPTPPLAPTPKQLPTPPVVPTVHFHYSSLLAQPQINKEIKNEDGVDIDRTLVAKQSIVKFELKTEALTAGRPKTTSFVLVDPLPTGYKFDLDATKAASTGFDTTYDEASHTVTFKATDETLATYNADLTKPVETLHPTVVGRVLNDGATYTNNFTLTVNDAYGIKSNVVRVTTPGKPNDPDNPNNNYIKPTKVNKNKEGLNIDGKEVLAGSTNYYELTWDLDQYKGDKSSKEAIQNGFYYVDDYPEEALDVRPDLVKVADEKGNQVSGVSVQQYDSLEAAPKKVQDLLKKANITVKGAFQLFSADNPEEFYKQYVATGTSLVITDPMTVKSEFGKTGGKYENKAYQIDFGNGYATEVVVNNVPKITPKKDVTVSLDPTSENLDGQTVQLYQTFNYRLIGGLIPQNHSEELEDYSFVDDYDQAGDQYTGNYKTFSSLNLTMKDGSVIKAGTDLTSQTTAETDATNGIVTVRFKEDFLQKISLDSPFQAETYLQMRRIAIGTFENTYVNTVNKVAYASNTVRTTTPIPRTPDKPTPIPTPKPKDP

How the values were obtained:
iSRCR1 (human) [1] = target: iSRCR1 (human) (UniProt Q9UGM3); experiment: SPR, amount of 2 µM analyte bound to immobilized iSRCR1, calculated from RU
iSRCR1 (human) [2] = target: iSRCR1 (human) (UniProt Q9UGM3); experiment: fluorescence ELISA, iSRCR1 coated (dashed lines), fragment labelled with Alexa Fluor 488 anti-His antibody, 1 ng-1 µg
iSRCR1 (human) [3] = target: iSRCR1 (human) (UniProt Q9UGM3); experiment: ELISA
iSRCR123 (human) [4] = target: iSRCR123 (human) (UniProt Q9UGM3); experiment: ELISA
iSRCR1 (human) [5] = target: iSRCR1 (human) (UniProt Q9UGM3); experiment: SPR, iSRCR1 immobilized, 2 µM fragment alone or incubated with SRCRP2 peptide
iSRCR123 (human) [6] = target: iSRCR123 (human) (UniProt Q9UGM3); experiment: ELISA, fluorescently labeled analyte on coated iSRCR123; ELISA (FIG. 9)
iSRCR1 (human) [7] = target: iSRCR1 (human) (UniProt Q9UGM3); experiment: ELISA, fluorescently labeled analyte on coated iSRCR1; ELISA (FIG. 9)
iSRCR1 (human) [8] = target: iSRCR1 (human) (UniProt Q9UGM3); experiment: SPR, iSRCR1 immobilized, 2 µM analyte, buffer with 2.5 mM CaCl2
iSRCR123 (human) [9] = target: iSRCR123 (human) (UniProt Q9UGM3); experiment: SPR, iSRCR123 immobilized on CM5 chip, analyte 0.250-2.000 µM (self adhesion)
iSRCR1 (human) [10] = target: iSRCR1 (human) (UniProt Q9UGM3); experiment: SPR, iSRCR1 immobilized on CM5 chip, analyte 0.250-2.000 µM (self adhesion)
iSRCR123 (human) [11] = target: iSRCR123 (human) (UniProt Q9UGM3); experiment: SPR, self adhesion

Row | binding (iSRCR123 (human) [9]) | binding (iSRCR1 (human) [10]) | binding (iSRCR123 (human) [11]) | Substance | binding (iSRCR1 (human) [1]) | binding (iSRCR1 (human) [2]) | binding (iSRCR1 (human) [3]) | binding (iSRCR123 (human) [4]) | binding (iSRCR1 (human) [5]) | binding (iSRCR123 (human) [6]) | binding (iSRCR1 (human) [7]) | binding (iSRCR1 (human) [8])
1 | – | – | – | FL^SspB (S. gordonii DL1 SspB, residues 39-1433) (from UniProt P16952 39-1433) | binds | binds | binds | binds | binds | binds | binds | binds
2 | binds | binds | binds | iSRCR1 (from UniProt Q9UGM3 102-202) (receptor) | – | – | – | – | – | – | – | –
3 | binds | binds | – | iSRCR123 (from UniProt Q9UGM3 102-463) (receptor) | – | – | – | – | – | – | – | –
